PubChem BioAssay AID504804 – Drosophila RNAi Screening Center | 2011
The screen tested about 19,000 reagents; this is a random part of those that have a named target and a result. In the full data, 47 (0.25%) got an active call. 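Signals are raw, not normalised; exact z-scores behind calls not deposited; actives needed confirmation, so some wells reaching 2 SD are inactive.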 A plus sign joins genes that one reagent is predicted to hit. Reagent sequences are not shown.

Screen: 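dsRNAs that improve Kc cell survival under doxorubicin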 (primary screen)
Cells: Drosophila Kc cells
Reagent: long dsRNA against Drosophila genes, 0.5 µg dsRNA per well
Duration: 96 h (48 h knock-down, then 48 h drug)
Challenge: doxorubicin 5 µg/ml for 48 h, added 48 h after dsRNA
Measurement: 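Viability measured as cellular ATP by luminescence after 48 h knock-down then 48 h doxorubicin at 5 µg/ml; unnormalised plate counts for each replicate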
Scale: raw ATP luminescence: higher = more viable cells, protection from doxorubicin
Active means: 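Active when both duplicate wells lie at least 2 SD above the plate mean and protection is confirmed by rescreening and independent dsRNAs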

predicted target | DRSC id | SD above plate mean | raw ATP luminescence, replicate 1 | raw ATP luminescence, replicate 2 | call
Eh (Eclosion hormone) | DRSC16660 | – | 89720 | 72020 | inactive
tok (tolkin) | DRSC17087 | – | 48763 | 57707 | inactive
CG43078 | DRSC10292 | – | 39863 | 41227 | inactive
CG43078 | DRSC10608 | – | 59077 | 47490 | inactive
CG9396 | DRSC16487 | – | 64140 | 60737 | inactive
EcR (Ecdysone receptor) | DRSC04906 | – | 42807 | 48717 | inactive
EcR (Ecdysone receptor) | DRSC04910 | – | 73787 | 68970 | inactive
dpr6 (defective proboscis extension response 6) | DRSC09005 | – | 43830 | 60407 | inactive
dpr6 (defective proboscis extension response 6) | DRSC10162 | – | 66667 | 65363 | inactive
dpr6 (defective proboscis extension response 6) | DRSC10163 | – | 2.14e5 | 2.19e5 | inactive
TwdlJ (TweedleJ) | DRSC15812 | – | 33040 | 44050 | inactive
CG14218 | DRSC19575 | – | 3.30e5 | 3.38e5 | inactive
CG13390 | DRSC02261 | – | 39990 | 67960 | inactive
zuc (zucchini) | DRSC02160 | – | 1.12e5 | 69583 | inactive
CG42507 + Trl | DRSC09325 | – | 65287 | 72763 | inactive
CG42507 + Trl | DRSC11308 | – | 9903 | 10050 | inactive
S-Lap8 (Sperm-Leucylaminopeptidase 8) | DRSC06870 | – | 47360 | 59007 | inactive
RpS16 (Ribosomal protein S16) | DRSC04442 | – | 28083 | 28923 | inactive
MetRS-m (Methionyl-tRNA synthetase, mitochondrial) | DRSC16443 | – | 64657 | 27970 | inactive
MetRS-m (Methionyl-tRNA synthetase, mitochondrial) | DRSC16515 | – | 78460 | 74760 | inactive
CG15515 | DRSC15054 | – | 56060 | 40230 | inactive
CG14650 | DRSC12236 | – | 22683 | 31897 | inactive
S-Lap1 (Sperm-Leucylaminopeptidase 1) | DRSC10627 | – | 39213 | 40367 | inactive
synr (sayonara) | DRSC02369 | – | 28360 | 36600 | inactive
CG8584 | DRSC07217 | – | 47867 | 80800 | inactive
CarT (Carcinine transporter) | DRSC03196 | – | 71600 | 74410 | inactive
CG17233 | DRSC10259 | at least 2 SD above plate mean | 47760 | 41210 | inactive
CG17404 | DRSC15234 | – | 62587 | 49023 | inactive
CG32944 | DRSC12138 | – | 61550 | 55220 | inactive
CG32944 | DRSC12341 | – | 65550 | 68913 | inactive
Syt7 (Synaptotagmin 7) | DRSC17130 | – | 81280 | 59080 | inactive
Syt7 (Synaptotagmin 7) | DRSC17159 | – | 72000 | 47140 | inactive
Tsp39D (Tetraspanin 39D) | DRSC03099 | – | 51113 | 55077 | inactive
alphaTub67C (alpha-Tubulin at 67C) | DRSC11321 | – | 69797 | 56323 | inactive

A stretch from the list above, as a working copy:
predicted target | DRSC id | SD above plate mean | raw ATP luminescence, replicate 1 | raw ATP luminescence, replicate 2 | call
CG9396 | DRSC16487 | – | 64140 | 60737 | inactive
EcR (Ecdysone receptor) | DRSC04906 | – | 42807 | 48717 | inactive
EcR (Ecdysone receptor) | DRSC04910 | – | 73787 | 68970 | inactive
dpr6 (defective proboscis extension response 6) | DRSC09005 | – | 43830 | 60407 | inactive
dpr6 (defective proboscis extension response 6) | DRSC10162 | – | 66667 | 65363 | inactive
dpr6 (defective proboscis extension response 6) | DRSC10163 | – | 2.14e5 | 2.19e5 | inactive
